Assay results reported in publication doi:10.1101/144360 (bioRxiv, 2017).
No constants are given. Whether binding was seen depends on the method and setting. For some of these results: Binding seen in cells or lysates may run through a third protein. Some entries that bind do so weakly or less than the wild type. For some of these results: Where a sequence is shown, tags or fusion partners need not be part of it.

Sequences of proteins named here, by UniProt entry; tags and fusion partners are left off. A change or cut given only in a name is not applied to a line headed by its entry. Residues count along the entry.
UniProt P38261, 121-141: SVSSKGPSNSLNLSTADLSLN
UniProt P38261, whole entry: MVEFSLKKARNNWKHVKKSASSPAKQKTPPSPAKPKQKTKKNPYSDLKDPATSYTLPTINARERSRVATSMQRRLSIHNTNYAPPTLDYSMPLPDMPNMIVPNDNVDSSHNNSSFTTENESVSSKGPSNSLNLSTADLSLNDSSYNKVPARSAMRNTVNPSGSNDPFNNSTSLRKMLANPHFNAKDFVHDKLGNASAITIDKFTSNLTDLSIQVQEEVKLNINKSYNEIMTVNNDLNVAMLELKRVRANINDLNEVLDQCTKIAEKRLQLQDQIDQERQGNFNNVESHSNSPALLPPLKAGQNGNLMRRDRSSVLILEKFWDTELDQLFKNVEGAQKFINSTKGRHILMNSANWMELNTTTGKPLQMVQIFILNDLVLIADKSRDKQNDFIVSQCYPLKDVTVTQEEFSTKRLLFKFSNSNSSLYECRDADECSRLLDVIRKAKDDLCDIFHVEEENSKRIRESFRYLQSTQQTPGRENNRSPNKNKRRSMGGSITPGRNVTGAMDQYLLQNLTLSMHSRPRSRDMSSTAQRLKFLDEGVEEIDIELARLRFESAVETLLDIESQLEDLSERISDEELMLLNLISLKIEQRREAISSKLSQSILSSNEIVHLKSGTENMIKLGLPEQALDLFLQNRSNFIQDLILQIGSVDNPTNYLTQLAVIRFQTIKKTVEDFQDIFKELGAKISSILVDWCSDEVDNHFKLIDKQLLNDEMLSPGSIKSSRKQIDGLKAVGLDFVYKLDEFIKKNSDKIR
UniProt O74653, 698-808: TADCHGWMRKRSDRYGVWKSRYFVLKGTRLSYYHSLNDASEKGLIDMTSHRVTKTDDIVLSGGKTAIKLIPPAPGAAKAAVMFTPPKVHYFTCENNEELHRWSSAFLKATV
UniProt P30619, whole entry: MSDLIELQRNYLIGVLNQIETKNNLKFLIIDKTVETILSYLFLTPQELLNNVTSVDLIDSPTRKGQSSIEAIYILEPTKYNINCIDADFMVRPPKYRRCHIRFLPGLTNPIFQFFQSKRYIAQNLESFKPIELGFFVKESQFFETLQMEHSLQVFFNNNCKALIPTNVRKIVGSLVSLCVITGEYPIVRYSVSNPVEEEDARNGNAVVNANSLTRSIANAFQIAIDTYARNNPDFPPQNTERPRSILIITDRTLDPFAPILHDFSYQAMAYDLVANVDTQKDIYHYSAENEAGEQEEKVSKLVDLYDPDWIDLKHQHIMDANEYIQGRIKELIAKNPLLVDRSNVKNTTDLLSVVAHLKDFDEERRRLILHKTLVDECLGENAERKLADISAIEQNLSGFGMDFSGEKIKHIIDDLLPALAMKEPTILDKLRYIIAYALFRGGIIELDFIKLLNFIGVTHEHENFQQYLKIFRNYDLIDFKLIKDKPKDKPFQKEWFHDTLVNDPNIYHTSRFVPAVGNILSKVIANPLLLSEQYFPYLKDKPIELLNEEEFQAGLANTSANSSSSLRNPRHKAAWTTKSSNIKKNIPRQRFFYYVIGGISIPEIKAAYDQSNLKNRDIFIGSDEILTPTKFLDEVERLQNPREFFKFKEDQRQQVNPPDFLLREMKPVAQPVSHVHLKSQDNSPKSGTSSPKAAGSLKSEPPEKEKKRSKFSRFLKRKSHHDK
UniProt P33332, 481-521: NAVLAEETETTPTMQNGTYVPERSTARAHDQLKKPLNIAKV

Tests used:
Exo84CRU (S. cerevisiae) = Exo84CRU (S. cerevisiae) (UniProt P38261); assay: split reporter
[1] = biological target: 6xHis-Cdc42_(G12V) (S. cerevisiae) (UniProt P19073); assay: SEC
[2] = biological target: GST-PH_(Boi1) (S. cerevisiae) (UniProt P38041); assay: pull-down
[3] = biological target: GST-PH_(Boi1RLT) (S. cerevisiae) (UniProt P38041); assay: pull-down
[4] = biological target: GST-PH_(SpBoi) (S. pombe) (UniProt O74653); assay: pull-down
[5] = biological target: 6xHis-Sec1p (S. cerevisiae) (UniProt P30619); assay: SEC
[6] = biological target: GST-PH_(Boi2) (S. cerevisiae) (UniProt P39969); assay: pull-down
[7] = biological target: 6xHis-Exo84_(121-141)-AGT (S. cerevisiae) (UniProt P38261); assay: SEC
[8] = biological target: T1, GST-SH3_(Boi1) (S. cerevisiae) (UniProt P38041); assay: pull-down
T1 sequence: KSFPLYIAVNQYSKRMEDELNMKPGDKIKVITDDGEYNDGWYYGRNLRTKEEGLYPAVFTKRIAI

[9] = biological target: T2, GST-SH3_(Boi2) (S. cerevisiae) (UniProt P39969); assay: pull-down
T2 sequence: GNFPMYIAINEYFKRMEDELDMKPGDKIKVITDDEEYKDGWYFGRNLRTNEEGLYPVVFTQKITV

[10] = biological target: 6xHis-Sec3_(481-521)-AGT (S. cerevisiae) (UniProt P33332); assay: SEC
[11] = biological target: 6xHIS-SH3_(Boi1) (S. cerevisiae) (UniProt P38041); assay: SEC
Boi1CRU (S. cerevisiae) = biological target: T3, Boi1CRU (S. cerevisiae) (UniProt P38041); assay: split reporter
T3 sequence: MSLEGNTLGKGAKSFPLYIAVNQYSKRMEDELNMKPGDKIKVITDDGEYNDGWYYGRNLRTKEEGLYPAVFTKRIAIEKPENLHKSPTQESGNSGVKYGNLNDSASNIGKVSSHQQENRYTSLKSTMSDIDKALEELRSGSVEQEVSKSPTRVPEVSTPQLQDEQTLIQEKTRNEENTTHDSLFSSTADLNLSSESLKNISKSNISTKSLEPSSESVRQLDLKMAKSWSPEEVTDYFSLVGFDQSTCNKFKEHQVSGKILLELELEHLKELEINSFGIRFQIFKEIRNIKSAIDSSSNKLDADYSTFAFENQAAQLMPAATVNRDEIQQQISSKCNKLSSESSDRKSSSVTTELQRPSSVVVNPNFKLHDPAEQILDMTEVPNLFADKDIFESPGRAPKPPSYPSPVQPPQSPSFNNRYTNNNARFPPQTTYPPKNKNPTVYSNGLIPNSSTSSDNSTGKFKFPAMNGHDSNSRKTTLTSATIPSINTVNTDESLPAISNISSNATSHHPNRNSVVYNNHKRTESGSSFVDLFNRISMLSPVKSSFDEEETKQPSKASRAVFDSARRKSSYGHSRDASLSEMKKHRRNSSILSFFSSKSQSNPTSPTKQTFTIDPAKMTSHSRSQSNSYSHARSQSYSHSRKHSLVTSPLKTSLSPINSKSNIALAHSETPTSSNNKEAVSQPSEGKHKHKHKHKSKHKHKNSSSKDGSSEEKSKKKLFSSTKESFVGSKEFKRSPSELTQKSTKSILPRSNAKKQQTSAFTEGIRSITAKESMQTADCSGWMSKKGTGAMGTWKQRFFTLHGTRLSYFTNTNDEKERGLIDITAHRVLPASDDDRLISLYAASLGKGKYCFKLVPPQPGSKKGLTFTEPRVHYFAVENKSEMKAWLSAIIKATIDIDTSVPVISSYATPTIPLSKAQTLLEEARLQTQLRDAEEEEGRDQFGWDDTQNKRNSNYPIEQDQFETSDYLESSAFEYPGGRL

[12] = biological target: PH_(Boi1)CRU (S. cerevisiae) (UniProt P38041); assay: split reporter

“Nub-Boi1_(70-980) (from UniProt P38041 70-980) (domain or fragment)” was tested, and the binding (Exo84CRU (S. cerevisiae)) was “no binding”.

“6xHis-Cdc42_(G12V) (from UniProt P19073 1-191)” was tested, and the binding [1] was “no binding”, the binding [2] was “binds” and the binding [3] was “no binding”. For the same molecule, the binding [4] was “binds”.

In the case of 6xHis-Sec1p (from UniProt P30619 1-724), the binding [5] is reported as “no binding”, the binding [2] is reported as “binds” and the binding [3] is reported as “binds”. For the same molecule, the binding [6] was “binds” and the binding [4] was “binds”.

With “6xHis-Exo84_(121-141)-AGT (from UniProt P38261 121-141) (peptide)” the binding [7] was “no binding”, the binding [8] was “binds” and the binding [9] was “no binding”.

In the case of “6xHis-Sec3_(481-521)-AGT (from UniProt P33332 481-521) (peptide)”, the binding [10] is reported as “no binding”, the binding [8] is reported as “binds” and the binding [9] is reported as “no binding”.

B1: 6xHIS-SH3_(Boi1) (domain or fragment, UniProt P38041 13-77)
chain: T1 sequence
With B1 the binding [11] was “no binding”.

B2: Nub-Bud6p (protein, UniProt P41697 1-788)
chain: MKMAVDDPTYGTPKIKRTASSSSSIETTVTKLLMSTKHLLQVLTQWSKGTTSGRLVSDAYVQLGNDFKVVSKFFMHAKVDMSDVGDVPMALRRVLEVTLREPPSDETLNKHLPKIREIIVTLLDKLKVKQAILKNMQQEHRISVKSHHQQNPSFTSNLSLGSEGTREGTPLSSRKSSIVRDQRQSDSVENSYGEKVNSTSTGTPSAQSAEATLTKPRTNIKQNLKSNNAPNASDDDDALSQLKKGTNLQRRASKRYSAYHMAKLTNQSTTEAAAAAGLMTTPSPSMLHLEETVRKSKLYGNNNNDDDRNINSAENKGKSIDDVSKASPLAKTPLPIENVRASPRRLSSVVTTSPDKAMNGTCPVFLRIGDKTKKCHVQLPTTKNALRLLFIERFAYSPGANSFPDIYIMDPQYGVFYELEELNLLDIKEGFVIELKLEENPNNTIKEFIDTVKMEISNSQNDIIRHLKEMSFGSAISGKQTEVLPQPGLEANKHDLVGQNKKDDDKTIKDIQYELGKIKQVHNINRSNINETIFNILRKVDNFKSLSFSAKNSSNRMYMEKSQTELGDLSDTLLSKVDDLQDVIEIMRKDVAERRSQPAKKKLETVSKDLENAQADVLKLQEFIDTEKPHWKKTWEAELDKVCEEQQFLTLQEELILDLKEDLGKALETFDLIKLCCEEQEKNPSRSKSNPILPIMRPGTFNQVREQVMVAVQSLNPDHDSRVEAIDKAEKMWEMERKLKASNEFDDELENFVGNSNLKKSGGFEEVERIRKQKDEANLRAYFGPGFT
With B2 the binding (Boi1CRU (S. cerevisiae)) was “binds” and the binding [12] was “no binding”.
